Measured values as given in PMC6423139.
These are yes or no findings as the source states them, for the method shown. In cells and extracts the contact can be indirect. Some binding calls cover weakened binding; strength is not graded here.

Sequences of proteins named here, by UniProt entry; tags and fusion partners are left off.
UniProt Q09472: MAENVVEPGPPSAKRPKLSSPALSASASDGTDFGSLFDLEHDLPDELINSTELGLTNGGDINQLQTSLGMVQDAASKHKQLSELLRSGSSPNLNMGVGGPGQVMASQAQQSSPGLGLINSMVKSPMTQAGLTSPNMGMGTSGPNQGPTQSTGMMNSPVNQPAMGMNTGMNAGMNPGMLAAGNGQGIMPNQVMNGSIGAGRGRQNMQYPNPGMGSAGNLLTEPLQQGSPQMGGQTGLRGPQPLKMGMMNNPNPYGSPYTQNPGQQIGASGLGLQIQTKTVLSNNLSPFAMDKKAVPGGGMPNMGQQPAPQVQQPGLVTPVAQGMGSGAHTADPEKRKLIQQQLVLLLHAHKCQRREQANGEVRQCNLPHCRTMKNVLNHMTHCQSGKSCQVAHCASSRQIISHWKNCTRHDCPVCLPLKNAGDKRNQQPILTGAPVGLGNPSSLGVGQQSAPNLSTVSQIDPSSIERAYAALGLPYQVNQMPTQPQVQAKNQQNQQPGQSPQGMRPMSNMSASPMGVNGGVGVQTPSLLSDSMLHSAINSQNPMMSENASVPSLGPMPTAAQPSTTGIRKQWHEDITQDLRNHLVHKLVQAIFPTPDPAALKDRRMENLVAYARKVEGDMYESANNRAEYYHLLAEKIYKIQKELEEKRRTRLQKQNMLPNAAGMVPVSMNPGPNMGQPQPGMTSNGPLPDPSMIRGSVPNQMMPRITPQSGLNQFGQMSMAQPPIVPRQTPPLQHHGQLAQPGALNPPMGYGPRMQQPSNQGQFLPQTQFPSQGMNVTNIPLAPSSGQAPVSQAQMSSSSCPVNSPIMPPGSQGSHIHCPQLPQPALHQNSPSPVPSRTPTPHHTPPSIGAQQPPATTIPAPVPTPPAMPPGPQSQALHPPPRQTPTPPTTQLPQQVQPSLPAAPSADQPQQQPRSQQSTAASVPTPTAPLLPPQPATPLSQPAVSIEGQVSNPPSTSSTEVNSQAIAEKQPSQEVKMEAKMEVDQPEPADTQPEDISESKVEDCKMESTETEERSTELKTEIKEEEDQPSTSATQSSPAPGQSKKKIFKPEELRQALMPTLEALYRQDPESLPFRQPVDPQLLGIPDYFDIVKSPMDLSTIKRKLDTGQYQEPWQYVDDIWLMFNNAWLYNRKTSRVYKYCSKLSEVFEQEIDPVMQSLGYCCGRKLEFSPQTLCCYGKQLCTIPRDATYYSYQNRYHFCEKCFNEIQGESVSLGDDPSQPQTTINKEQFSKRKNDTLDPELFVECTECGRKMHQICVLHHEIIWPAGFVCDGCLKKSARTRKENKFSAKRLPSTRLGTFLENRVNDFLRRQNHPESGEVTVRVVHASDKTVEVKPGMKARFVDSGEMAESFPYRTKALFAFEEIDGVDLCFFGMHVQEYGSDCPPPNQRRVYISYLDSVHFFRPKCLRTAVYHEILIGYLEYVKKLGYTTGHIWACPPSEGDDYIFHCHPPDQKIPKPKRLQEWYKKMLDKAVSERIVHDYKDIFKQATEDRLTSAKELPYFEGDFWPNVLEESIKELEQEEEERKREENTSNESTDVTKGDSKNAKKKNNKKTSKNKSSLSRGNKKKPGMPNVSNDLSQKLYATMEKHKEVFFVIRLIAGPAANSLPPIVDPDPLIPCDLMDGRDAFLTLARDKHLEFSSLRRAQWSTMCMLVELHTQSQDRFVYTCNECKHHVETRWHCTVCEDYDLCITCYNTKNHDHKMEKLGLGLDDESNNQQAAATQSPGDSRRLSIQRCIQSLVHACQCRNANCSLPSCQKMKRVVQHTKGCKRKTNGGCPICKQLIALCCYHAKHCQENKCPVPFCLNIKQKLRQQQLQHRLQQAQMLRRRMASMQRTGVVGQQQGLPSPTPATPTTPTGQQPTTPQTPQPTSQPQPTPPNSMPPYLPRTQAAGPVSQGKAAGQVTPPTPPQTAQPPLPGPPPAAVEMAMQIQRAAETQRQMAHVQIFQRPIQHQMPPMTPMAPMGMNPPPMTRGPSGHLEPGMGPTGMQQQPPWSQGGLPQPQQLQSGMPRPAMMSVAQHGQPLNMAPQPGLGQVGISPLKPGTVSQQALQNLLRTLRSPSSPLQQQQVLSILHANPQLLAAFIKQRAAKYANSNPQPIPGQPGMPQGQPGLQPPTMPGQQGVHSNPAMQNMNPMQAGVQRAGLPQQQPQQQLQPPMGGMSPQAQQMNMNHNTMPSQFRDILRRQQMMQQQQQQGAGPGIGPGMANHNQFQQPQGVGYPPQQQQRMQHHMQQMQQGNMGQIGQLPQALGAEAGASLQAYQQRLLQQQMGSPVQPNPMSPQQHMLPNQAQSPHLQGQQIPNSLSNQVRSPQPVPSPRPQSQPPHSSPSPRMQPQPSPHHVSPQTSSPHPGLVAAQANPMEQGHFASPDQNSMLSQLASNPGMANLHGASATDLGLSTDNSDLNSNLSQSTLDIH

Target: T1, endogenous Polι (MRC5 fibroblasts) (human (endogenous in MRC5)) (UniProt Q9UNA4)
T1 sequence: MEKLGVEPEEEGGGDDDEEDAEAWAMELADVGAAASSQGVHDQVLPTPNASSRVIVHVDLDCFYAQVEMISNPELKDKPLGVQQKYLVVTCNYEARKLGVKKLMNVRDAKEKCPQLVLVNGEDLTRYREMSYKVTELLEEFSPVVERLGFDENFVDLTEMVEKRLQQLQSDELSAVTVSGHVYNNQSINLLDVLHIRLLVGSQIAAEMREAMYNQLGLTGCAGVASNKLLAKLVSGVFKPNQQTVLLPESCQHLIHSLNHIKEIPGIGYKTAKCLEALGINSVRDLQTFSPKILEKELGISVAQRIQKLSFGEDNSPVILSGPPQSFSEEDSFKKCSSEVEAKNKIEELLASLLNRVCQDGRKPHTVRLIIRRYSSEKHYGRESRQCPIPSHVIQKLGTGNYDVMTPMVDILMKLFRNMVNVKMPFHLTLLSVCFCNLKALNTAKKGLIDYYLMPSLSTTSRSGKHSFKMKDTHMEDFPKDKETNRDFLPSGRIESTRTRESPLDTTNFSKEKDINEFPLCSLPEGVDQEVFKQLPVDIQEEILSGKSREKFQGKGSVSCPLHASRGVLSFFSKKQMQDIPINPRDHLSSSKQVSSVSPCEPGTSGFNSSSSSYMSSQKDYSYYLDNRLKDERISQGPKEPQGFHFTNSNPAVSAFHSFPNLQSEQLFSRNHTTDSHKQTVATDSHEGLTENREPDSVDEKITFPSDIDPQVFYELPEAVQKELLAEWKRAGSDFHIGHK
Experiment: proximity ligation; endogenous Polι and p300 in fixed MRC5 fibroblasts; primary antibodies for Polι and p300, anti-mouse MINUS and anti-rabbit PLUS probes; confocal microscopy

## endogenous p300 (MRC5 fibroblasts) (from UniProt Q09472 1-2414) (enzyme)
  binding: binds
